Measured values published in PMC4391845.
These are yes or no findings as the source states them, for the method shown. For some of these results: Binding seen in cells or lysates may run through a third protein. Some entries that bind do so weakly or less than the wild type. For some of these results: Tags and fused reporters may be left off the sequences shown.

T1: PBX1(1–317) (human) (UniProt P40424)
T1 sequence: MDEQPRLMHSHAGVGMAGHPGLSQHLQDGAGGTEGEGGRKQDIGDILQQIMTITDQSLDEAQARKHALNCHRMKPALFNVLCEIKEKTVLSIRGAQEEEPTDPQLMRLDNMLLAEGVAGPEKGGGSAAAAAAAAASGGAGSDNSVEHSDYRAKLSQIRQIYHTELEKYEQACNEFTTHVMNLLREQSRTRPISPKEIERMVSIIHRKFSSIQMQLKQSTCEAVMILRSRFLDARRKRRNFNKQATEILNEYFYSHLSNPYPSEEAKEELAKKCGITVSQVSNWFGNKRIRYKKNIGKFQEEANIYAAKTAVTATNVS

T2: PBX1(1–308) (human) (UniProt P40424)
T2 sequence: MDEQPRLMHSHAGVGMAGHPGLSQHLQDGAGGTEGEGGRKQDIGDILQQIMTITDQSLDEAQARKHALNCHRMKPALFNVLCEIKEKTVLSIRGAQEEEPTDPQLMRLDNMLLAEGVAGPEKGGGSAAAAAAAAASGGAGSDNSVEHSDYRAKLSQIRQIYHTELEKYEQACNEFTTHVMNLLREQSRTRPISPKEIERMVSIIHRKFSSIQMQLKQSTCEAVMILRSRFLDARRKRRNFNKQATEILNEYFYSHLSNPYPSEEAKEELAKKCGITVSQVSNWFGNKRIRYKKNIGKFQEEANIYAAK

T3: GST-PBX1(1–308) (human) (UniProt P40424)
T3 sequence: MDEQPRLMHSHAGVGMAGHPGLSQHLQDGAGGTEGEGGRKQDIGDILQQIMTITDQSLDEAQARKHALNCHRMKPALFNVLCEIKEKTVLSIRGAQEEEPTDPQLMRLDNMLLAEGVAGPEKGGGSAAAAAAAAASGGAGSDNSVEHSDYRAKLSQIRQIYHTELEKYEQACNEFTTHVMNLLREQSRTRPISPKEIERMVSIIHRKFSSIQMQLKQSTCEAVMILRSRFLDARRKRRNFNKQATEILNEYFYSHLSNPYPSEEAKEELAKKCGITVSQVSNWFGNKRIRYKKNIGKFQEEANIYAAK

T4: GST-PBX1(1–317) (human) (UniProt P40424)
T4 sequence: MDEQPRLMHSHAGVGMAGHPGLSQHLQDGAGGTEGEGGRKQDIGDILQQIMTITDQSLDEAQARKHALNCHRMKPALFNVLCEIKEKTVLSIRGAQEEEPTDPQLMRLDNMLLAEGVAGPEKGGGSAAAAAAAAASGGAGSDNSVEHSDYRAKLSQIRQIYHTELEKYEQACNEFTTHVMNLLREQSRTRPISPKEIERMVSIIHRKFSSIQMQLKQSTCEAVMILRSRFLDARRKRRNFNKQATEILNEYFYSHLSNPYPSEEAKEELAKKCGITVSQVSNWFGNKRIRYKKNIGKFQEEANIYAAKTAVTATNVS

T5: PBX1(1–430) full-length (human) (UniProt P40424)
T5 sequence: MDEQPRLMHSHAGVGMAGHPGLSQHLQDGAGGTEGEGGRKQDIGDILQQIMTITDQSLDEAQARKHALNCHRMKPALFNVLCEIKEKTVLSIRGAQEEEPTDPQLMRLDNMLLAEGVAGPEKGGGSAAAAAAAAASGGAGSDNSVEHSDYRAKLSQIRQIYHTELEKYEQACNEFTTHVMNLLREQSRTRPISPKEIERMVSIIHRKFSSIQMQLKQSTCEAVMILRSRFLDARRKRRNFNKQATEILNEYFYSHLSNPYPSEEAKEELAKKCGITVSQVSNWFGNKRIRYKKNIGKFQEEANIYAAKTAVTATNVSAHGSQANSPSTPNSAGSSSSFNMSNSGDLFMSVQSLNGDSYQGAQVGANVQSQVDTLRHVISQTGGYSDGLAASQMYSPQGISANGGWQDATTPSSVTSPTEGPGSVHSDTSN

T6: GST-PBX1(1–430) full-length (human) (UniProt P40424)
T6 sequence: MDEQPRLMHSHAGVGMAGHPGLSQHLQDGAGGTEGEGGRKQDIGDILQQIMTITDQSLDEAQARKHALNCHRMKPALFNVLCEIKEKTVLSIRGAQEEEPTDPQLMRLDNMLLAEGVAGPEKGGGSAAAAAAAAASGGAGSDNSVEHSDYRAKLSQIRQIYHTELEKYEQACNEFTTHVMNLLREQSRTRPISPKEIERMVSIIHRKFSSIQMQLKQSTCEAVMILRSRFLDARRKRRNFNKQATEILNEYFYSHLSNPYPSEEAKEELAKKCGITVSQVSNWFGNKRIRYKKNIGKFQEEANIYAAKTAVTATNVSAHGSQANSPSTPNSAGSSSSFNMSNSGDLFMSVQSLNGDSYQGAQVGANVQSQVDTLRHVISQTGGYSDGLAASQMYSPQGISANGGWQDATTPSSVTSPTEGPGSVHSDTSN


Experiments:
[1] = molecular target: T1, PBX1(1–317) (human); experiment: ion exchange chromatography (co-elution); co-purified GST-free truncated complexes on Resource S cation exchange column, 20 mM Tris pH 7.4, 0.1–1.0 M NaCl gradient; fractions on SDS PAGE; both purified
[2] = molecular target: T2, PBX1(1–308) (human); experiment: as above
[3] = molecular target: T2, PBX1(1–308) (human); experiment: SEC-MALS; static light scattering (Viscotek GPCmax, three detectors) after two TSKgel G3000PWxl columns, 20 mM Tris pH 7.2, 200 mM NaCl, 5% glycerol, 1 mM TCEP; complex loaded at 1.5 mg/ml, without and with 11 bp DNA; both purified
[4] = molecular target: T3, GST-PBX1(1–308) (human); experiment: pull-down; co-purification from E. coli co-expressing GST-PBX1 and PREP1 on glutathione-sepharose 4B beads; lysis buffer 20 mM Tris pH 7.4, 1 M NaCl, 10% glycerol; washes with 0.5 M and 0.3 M NaCl; eluted by PreScission cleavage
[5] = molecular target: T4, GST-PBX1(1–317) (human); experiment: as above
[6] = molecular target: T1, PBX1(1–317) (human); experiment: SEC; co-purified complex on Superose 6 10/300, 20 mM Tris pH 7.4, 0.3 M NaCl, 5% glycerol, 0.5 mM EDTA, 1 mM DTT, 0.3 ml/min; fractions on SDS PAGE; both purified
[7] = molecular target: T2, PBX1(1–308) (human); experiment: as above
[8] = molecular target: T5, PBX1(1–430) full-length (human); experiment: ion exchange chromatography (co-elution); co-purified GST-free full-length complex on Resource Q anion exchange column, 20 mM Tris pH 7.4, 0.1–1.0 M NaCl gradient; fractions on SDS PAGE; both purified
[9] = molecular target: T6, GST-PBX1(1–430) full-length (human); experiment: pull-down; co-purification from E. coli co-expressing GST-PBX1 and PREP1 on glutathione-sepharose 4B beads; lysis buffer 20 mM Tris pH 7.4, 1 M NaCl, 10% glycerol; washes with 0.5 M and 0.3 M NaCl; eluted by PreScission cleavage
[10] = molecular target: T5, PBX1(1–430) full-length (human); experiment: SEC; co-purified complex on Superose 6 10/300, 20 mM Tris pH 7.4, 0.3 M NaCl, 5% glycerol, 0.5 mM EDTA, 1 mM DTT, 0.3 ml/min; fractions on SDS PAGE; both purified

binding [1]	binding [2]	binding [3]	binding [4]	binding [5]	binding [6]	binding [7]	binding [8]	binding [9]	binding [10]	Binder
binds	binds	binds	binds	binds	binds	binds	–	–	–	PREP1(1–344) (domain or fragment, UniProt P55347 1-344) MMATQTLSIDSYQDGQQMQVVTELKTEQDPNCSEPDAEGVSPPPVESQTPMDVDKQAIYRHPLFPLLALLFEKCEQSTQGSEGTTSASFDVDIENFVRKQEKEGKPFFCEDPETDNLMVKAIQVLRIHLLELEKVNELCKDFCSRYIACLKTKMNSETLLSGEPGSPYSPVQSQQIQSAITGTISPQGIVVPASALQQGNVAMATVAGGTVYQPVTVVTPQGQVVTQTLSPGTIRIQNSQLQLQLNQDLSILHQDDGSSKNKRGVLPKHATNVMRSWLFQHIGHPYPTEDEKKQIAAQTNLTLLQVNNWFINARRRILQPMLDSSCSETPKTKKKTAQNRPVQR
–	–	–	–	–	–	–	binds	binds	binds	PREP1(1–436) full-length (protein, UniProt P55347 1-436) MMATQTLSIDSYQDGQQMQVVTELKTEQDPNCSEPDAEGVSPPPVESQTPMDVDKQAIYRHPLFPLLALLFEKCEQSTQGSEGTTSASFDVDIENFVRKQEKEGKPFFCEDPETDNLMVKAIQVLRIHLLELEKVNELCKDFCSRYIACLKTKMNSETLLSGEPGSPYSPVQSQQIQSAITGTISPQGIVVPASALQQGNVAMATVAGGTVYQPVTVVTPQGQVVTQTLSPGTIRIQNSQLQLQLNQDLSILHQDDGSSKNKRGVLPKHATNVMRSWLFQHIGHPYPTEDEKKQIAAQTNLTLLQVNNWFINARRRILQPMLDSSCSETPKTKKKTAQNRPVQRFWPDSIASGVAQPPPSELTMSEGAVVTITTPVNMNVDSLQSLSSDGATLAVQQVMMAGQSEDESVDSTEEDAGALAPAHISGLVLENSDSLQ
